This is one part of the list.

Chains of the proteins cited; added tags and fusions are not shown. Lines headed by an entry give the natural chain unless they say otherwise; changes in a name come on top.
UniProt Q13137: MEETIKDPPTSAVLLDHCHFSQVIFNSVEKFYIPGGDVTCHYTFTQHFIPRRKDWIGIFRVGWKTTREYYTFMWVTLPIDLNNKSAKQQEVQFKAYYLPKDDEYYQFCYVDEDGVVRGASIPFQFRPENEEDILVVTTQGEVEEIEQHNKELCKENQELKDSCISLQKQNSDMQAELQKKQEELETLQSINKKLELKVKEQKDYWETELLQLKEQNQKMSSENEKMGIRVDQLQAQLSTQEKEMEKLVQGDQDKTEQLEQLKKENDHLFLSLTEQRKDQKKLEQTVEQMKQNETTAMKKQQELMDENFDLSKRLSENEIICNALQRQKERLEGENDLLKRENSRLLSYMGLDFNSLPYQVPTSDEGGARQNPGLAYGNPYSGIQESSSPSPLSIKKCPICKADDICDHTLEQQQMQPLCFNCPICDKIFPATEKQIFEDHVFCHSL
UniProt Q8WUR7: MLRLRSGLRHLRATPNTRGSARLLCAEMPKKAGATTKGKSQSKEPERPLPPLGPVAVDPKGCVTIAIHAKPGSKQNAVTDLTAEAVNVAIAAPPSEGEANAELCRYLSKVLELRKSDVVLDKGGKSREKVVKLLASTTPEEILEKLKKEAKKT
UniProt Q13555: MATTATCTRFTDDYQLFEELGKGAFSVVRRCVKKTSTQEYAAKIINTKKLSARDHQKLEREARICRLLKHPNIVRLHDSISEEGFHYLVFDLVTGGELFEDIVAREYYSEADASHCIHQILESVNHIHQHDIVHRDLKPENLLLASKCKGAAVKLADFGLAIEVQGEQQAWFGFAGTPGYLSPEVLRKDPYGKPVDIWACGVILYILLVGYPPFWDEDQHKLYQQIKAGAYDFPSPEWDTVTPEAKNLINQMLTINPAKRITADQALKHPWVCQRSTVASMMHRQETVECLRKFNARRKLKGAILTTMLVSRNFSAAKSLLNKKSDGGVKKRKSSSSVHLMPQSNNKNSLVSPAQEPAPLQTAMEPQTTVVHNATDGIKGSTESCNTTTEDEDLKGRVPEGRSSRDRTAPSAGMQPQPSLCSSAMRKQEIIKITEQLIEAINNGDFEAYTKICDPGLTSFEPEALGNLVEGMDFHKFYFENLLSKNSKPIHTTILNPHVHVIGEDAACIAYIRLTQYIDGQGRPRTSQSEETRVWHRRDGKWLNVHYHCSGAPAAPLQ
UniProt Q9BUW7: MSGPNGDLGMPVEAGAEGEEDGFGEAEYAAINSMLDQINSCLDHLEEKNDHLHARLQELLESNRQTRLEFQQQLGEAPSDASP
UniProt Q9H741: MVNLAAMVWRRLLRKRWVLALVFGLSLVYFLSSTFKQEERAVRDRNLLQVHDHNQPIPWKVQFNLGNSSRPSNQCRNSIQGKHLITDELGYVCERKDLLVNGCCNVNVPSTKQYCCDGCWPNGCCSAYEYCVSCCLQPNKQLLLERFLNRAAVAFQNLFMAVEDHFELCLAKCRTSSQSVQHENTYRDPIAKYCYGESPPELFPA
UniProt Q9Y6J0: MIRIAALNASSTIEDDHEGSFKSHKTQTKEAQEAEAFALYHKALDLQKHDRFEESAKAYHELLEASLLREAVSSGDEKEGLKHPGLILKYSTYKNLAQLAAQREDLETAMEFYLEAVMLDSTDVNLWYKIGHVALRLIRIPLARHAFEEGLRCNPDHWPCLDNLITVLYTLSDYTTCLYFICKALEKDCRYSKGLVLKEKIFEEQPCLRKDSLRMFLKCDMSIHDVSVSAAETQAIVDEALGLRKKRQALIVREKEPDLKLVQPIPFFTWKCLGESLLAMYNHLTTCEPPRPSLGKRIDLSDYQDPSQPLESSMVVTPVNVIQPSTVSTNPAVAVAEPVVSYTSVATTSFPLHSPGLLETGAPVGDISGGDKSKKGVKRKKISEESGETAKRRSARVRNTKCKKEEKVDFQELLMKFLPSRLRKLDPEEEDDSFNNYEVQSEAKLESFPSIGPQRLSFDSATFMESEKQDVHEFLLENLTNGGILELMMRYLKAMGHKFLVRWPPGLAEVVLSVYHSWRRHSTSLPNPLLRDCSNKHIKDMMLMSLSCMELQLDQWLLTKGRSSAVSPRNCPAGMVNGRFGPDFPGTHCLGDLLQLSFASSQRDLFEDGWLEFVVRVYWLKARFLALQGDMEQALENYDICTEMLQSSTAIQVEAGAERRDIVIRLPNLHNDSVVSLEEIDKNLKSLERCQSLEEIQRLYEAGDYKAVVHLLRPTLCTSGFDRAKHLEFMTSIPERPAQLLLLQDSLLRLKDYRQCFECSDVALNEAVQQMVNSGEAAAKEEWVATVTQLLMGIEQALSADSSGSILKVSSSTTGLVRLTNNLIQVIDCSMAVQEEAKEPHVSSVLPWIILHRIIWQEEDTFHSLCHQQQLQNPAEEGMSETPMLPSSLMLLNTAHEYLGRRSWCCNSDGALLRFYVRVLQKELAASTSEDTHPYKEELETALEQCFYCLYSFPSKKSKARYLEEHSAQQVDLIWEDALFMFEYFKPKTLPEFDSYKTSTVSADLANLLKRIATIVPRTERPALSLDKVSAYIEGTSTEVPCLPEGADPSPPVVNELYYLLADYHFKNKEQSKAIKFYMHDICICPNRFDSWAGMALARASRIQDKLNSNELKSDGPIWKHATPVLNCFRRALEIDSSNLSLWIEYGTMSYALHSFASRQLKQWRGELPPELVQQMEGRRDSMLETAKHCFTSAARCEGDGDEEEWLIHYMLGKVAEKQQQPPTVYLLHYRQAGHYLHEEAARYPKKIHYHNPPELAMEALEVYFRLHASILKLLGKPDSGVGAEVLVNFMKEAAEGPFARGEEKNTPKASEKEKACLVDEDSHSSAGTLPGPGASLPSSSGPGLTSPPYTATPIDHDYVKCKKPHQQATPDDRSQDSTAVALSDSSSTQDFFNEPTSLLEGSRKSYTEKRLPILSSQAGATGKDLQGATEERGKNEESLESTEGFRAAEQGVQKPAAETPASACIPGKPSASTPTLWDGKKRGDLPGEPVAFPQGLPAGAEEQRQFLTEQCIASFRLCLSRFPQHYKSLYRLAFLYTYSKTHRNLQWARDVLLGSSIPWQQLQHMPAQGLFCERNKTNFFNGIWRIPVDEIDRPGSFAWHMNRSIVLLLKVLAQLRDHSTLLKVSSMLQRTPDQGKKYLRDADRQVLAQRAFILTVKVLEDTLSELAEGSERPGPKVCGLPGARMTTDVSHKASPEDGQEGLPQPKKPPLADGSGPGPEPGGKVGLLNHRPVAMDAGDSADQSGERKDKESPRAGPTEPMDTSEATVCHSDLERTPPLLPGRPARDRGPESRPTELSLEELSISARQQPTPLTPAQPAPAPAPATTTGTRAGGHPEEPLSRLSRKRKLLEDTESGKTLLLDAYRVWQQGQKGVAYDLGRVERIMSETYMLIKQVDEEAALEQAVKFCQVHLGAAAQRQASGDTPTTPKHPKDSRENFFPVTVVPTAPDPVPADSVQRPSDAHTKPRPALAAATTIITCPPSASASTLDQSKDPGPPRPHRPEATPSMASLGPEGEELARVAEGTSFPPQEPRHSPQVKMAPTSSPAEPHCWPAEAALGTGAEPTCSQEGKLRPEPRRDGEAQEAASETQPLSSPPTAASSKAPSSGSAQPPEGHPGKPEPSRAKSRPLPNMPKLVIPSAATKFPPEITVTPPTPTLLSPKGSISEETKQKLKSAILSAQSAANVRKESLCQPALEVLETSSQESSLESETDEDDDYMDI
UniProt Q96NL8: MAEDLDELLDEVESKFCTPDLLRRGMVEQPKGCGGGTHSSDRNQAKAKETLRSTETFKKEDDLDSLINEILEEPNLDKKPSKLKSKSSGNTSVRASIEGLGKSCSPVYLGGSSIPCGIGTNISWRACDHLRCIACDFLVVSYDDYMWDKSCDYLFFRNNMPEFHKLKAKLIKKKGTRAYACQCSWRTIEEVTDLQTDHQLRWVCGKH
UniProt Q9BSF8: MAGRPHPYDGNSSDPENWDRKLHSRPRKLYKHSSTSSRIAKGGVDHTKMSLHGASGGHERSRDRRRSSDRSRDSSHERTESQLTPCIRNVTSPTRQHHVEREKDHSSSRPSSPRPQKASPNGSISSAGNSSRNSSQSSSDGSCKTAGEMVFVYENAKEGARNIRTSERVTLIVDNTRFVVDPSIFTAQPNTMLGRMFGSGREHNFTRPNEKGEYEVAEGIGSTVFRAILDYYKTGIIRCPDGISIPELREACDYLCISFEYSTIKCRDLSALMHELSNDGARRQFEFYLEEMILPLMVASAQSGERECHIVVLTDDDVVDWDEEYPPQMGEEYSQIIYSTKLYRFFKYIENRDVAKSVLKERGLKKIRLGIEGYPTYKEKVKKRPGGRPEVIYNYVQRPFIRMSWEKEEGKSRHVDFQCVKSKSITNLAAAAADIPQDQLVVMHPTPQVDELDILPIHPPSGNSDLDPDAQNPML
UniProt Q8N1Q1: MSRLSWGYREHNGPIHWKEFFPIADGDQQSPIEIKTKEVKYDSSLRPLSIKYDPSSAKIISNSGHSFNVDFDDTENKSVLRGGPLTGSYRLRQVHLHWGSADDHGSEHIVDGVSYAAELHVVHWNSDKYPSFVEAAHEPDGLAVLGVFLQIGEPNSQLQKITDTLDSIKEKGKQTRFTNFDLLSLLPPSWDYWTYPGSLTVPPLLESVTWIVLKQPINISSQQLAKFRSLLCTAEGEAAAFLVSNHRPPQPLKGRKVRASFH
UniProt Q9BRJ6: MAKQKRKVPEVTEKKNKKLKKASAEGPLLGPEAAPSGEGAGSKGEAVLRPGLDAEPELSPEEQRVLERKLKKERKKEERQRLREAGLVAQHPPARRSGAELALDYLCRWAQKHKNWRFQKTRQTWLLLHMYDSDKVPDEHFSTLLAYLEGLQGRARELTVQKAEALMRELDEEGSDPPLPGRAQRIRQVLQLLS
UniProt Q9HB07: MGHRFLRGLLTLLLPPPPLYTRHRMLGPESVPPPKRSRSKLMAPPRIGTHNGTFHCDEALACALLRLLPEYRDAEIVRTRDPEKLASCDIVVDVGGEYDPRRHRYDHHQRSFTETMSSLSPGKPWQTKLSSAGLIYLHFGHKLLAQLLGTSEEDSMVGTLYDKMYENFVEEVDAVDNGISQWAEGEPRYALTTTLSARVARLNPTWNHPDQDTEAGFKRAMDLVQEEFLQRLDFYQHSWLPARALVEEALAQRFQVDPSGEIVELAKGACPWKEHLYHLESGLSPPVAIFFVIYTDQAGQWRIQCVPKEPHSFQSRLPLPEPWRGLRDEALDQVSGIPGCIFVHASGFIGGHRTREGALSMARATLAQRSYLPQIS
UniProt Q9BXL7: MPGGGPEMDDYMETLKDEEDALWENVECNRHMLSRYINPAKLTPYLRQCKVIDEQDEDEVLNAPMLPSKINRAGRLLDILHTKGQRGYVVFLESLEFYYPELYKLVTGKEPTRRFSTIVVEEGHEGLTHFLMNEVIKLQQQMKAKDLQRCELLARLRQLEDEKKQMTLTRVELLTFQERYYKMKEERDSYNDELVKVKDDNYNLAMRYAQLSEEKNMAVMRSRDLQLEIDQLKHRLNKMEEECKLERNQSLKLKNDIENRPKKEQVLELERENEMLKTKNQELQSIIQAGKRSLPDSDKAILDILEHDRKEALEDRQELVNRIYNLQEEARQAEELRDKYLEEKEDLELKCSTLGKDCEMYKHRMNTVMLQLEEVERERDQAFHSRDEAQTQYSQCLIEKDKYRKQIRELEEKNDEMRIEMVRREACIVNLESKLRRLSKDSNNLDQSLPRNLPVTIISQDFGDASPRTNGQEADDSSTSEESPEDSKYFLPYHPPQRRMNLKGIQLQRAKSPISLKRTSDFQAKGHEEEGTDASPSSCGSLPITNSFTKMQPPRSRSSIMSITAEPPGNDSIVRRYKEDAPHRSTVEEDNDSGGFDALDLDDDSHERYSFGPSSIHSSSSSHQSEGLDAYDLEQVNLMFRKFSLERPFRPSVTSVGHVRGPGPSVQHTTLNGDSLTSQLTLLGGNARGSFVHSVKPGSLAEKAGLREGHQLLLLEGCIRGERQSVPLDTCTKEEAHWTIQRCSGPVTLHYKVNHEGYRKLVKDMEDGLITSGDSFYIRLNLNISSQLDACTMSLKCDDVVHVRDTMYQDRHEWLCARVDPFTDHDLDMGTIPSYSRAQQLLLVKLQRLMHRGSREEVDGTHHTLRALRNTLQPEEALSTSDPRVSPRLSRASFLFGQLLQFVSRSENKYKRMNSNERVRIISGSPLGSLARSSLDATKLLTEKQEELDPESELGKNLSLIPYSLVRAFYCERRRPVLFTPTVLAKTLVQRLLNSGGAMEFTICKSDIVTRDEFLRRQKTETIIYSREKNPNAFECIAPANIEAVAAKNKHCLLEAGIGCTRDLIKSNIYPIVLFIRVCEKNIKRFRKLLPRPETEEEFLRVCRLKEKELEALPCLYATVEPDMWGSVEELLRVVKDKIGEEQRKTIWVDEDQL
UniProt Q9GZU0: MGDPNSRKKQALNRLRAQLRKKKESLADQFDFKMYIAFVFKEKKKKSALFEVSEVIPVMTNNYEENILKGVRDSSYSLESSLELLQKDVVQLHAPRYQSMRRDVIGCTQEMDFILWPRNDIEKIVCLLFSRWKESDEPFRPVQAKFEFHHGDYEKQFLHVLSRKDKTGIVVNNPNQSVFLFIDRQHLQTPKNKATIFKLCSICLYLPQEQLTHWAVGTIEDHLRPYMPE

Holding throughout (test): log2 fold change, soluble protein after heating vs DMSO (PISA); higher = thermal stabilisation; K562 cells, 10 uM, 30 min; active = over 0.2 and 3.5 SD of the protein, either way, in both replicates (recomputed)
Compound in assay [1]: CC[C@@H]1C(=O)N(C)c2cnc(Nc3ccc(C(=O)NC4CCN(C)CC4)cc3OC)nc2N1C1CCCC1
A digest of the protocol: (§1)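 Thermal stability values are relative to control samples and come from duplicates. They are expressed as log2 fold changes. For measurement, K562 cells (2×10^6 cells/mL) received 10 μM compound for 30 min, and aliquots were heated for 3 min over 48°C-58°C, pooled, and extracted at 4°C in PBS with 0.5% NP-40. Soluble protein, the supernatant after 21,000xg for 90 min, was quantified by TMTpro 16plex LC-MS/MS with equalised channel sums.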

Compound in assay [2]: CC[C@@H]1C(=O)N(C)c2cnc(Nc3ccc(C(=O)N[C@H]4CC[C@H](N5CCN(CC6CC6)CC5)CC4)cc3OC)nc2N1C(C)C [volasertib]
A digest of the protocol: as §1

Compound in assay [3]: CC[C@H](C)N1C=C(C2=C(C=C(C=C21)C3=CN=C(C=C3)N4CCNCC4)C(=O)NCC5=C(C=C(NC5=O)C)C)C
In outline: as §1

Compound in assay [4]: CC[C@H](C)[C@@H](C(=O)N[C@@H]([C@@H](C)O)C(=O)N[C@@H](CC(C)C)C(=O)[C@]1(CO1)C)NC(=O)[C@H]([C@@H](C)CC)N(C)C(=O)C [epoxomicin]
In outline:
as §1

Compound in assay [5]: CCn1cc(-c2ccnc3[nH]c(-c4cccc(CN(C)C)c4)cc23)c(-c2ccc(NC(=O)N(C)C)cc2)n1
In outline: as §1

Compound in assay [6]: CN(C)CC(=O)Nc1ccc2[nH]c(=O)c3ccccc3c2c1
In outline: as §1

Compound in assay [7]: CN1C2=C(C3=C1C(=O)N(N=C3)CC4=CC(=CC=C4)N)SC(=C2)S(=O)C
In outline:
as §1

Compound in assay [8]: CN1CCC(CNc2ccc3ncc(-c4cccc(OC(F)(F)F)c4)n3n2)CC1
In outline: as §1

Compound in assay [9]: CCn1c(C(=O)N(C2CC2)C2CC2)cc2c3c(ncn3C)c(Nc3cc(C)n(C)n3)nc21
In outline:
as §1

Compound in assay [10]: CN(CCOC1=CC=C(C=C1)C[C@H]2C(=O)NC(=O)S2)C3=CC=CC=N3 (racemic) [rosiglitazone]
A digest of the protocol:
as §1

On to CALCOCO2 isoform 4 (UniProt Q13137), for which the log2 fold change in [1] was active: -0.634; in [2], active: -0.471; in assay [3], inactive: -0.024; in [4], inactive: 0.035; in [5], inactive: 0.059; in assay [6] it was inactive: 0.01. In addition, the log2 fold change in [7] was inactive: 0.055; in assay [8], inactive: -0.149.

For the target C15orf40 (UniProt Q8WUR7), the log2 fold change in [1] was inactive: 0.019; in assay [2] it was inactive: 0.076; in [3], inactive: 0.042; in [4], inactive: -0.063; in [9], inactive: -0.063; in assay [5] it was inactive: -0.043. Further, the log2 fold change in assay [6] is inactive: -0.052; in [10], inactive: 0.058; in assay [7] it was inactive: -0.079; in assay [8], inactive: 0.031.

CALB1 (UniProt P05937): the log2 fold change in assay [1] is inactive: -0.123; in [2] it was inactive: -0.092; in assay [3], inactive: -0.007; in assay [4], inactive: 0.043; in [5], inactive: 0.05; in [6], inactive: 0.016. Besides, the log2 fold change in assay [7] is inactive: -0.039; in assay [8] it was active: -0.282.

CAMK2G isoform 6 (UniProt Q13555): the log2 fold change in assay [1] is inactive: 0.095; in assay [2], inactive: -0.15; in assay [3], inactive: 0.072; in [4], inactive: -0.028; in assay [5], inactive: 0.042; in assay [6] it was inactive: 0.035. The results for the log2 fold change in assay [7] and in assay [8] were inactive: 0.064 and inactive: -0.319, respectively.

For CAMKK1 isoform 2 (UniProt Q8N5S9), the log2 fold change in assay [2] was inactive: 0.664; in assay [5], inactive: -0.381; in [8] it was inactive: 0.488.

Take C9orf16 (UniProt Q9BUW7): the log2 fold change in assay [3] is inactive: 0.037; in assay [5], inactive: 0.128; in assay [7], inactive: 0; in assay [8], inactive: 0.152.

Consider C17orf99 (UniProt Q6UX52), for which the log2 fold change in [4] is inactive: -0.251; in assay [9], inactive: -0.05; in assay [5], inactive: -0.192; in assay [8], inactive: 0.034.

Take C12orf49 (UniProt Q9H741): the log2 fold change in assay [5] is inactive: 0.323; in assay [8], inactive: -0.081.

CAPNS1 (UniProt U3KPR7): the log2 fold change in assay [9] is inactive: 0.176.

As to C3AR1 (UniProt Q16581), the log2 fold change was inactive: -0.066 in [3] and inactive: -0.138 in assay [10].

For the target CABIN1 (UniProt Q9Y6J0), the log2 fold change in assay [9] was inactive: -0.005.

In the case of BTK isoform 2 (UniProt Q06187), the log2 fold change in [3] is inactive: 0.022; in assay [4], inactive: -0.152; in [9], inactive: -0.053; in [5], inactive: 0.146; in [6], inactive: -0.104; in assay [7] it was inactive: 0.447. Moreover, in assay [8], the log2 fold change was inactive: 0.135.

As to C5 (UniProt P01031), the log2 fold change in assay [4] is inactive: -0.25; in [5], inactive: -0.124; in assay [6], inactive: -0.08; in [8] it was inactive: -0.278.

Take CAP1 isoform 2 (UniProt Q01518): the log2 fold change in assay [10] was inactive: -0.381.

With C9 (UniProt P02748), the log2 fold change was inactive: -0.045 in [4] and inactive: 0.052 in assay [7].

CAMK2A isoform 2 (UniProt Q9UQM7): the log2 fold change in assay [7] was inactive: -1.13.

Take C8orf37 (UniProt Q96NL8): the log2 fold change in assay [4] was inactive: 0.063; in [9], inactive: 0.074.

For C8B (UniProt P07358), the log2 fold change in [7] is inactive: 0.287.

Regarding BTBD10 isoform 2 (UniProt Q9BSF8), the log2 fold change was inactive: 0.014 in assay [2], inactive: 0.148 in assay [5], inactive: 0.016 in [7] and inactive: -0.276 in [8].

For C12orf60 (UniProt Q5U649), the log2 fold change was inactive: -0.263 in [2], inactive: 0.302 in assay [4], inactive: 0.033 in [9] and inactive: -0.294 in [10].

For CA13 (UniProt Q8N1Q1), the log2 fold change in assay [3] is inactive: 0.089; in [4] it was inactive: -0.003; in [9], inactive: 0.031; in [5], inactive: 0.078; in assay [6], inactive: -0.058; in assay [10], inactive: 0.062. Further, the log2 fold change is inactive: 0 in assay [7] and inactive: 0.038 in [8].

C7orf50 (UniProt Q9BRJ6): the log2 fold change is inactive: -0.025 in assay [6] and inactive: 0.258 in [7].

For C3orf86 (UniProt P0DN24), the log2 fold change in assay [3] was inactive: 0.247.

For C12orf10 (UniProt Q9HB07), the values for the log2 fold change in assay [5] and in assay [8] were inactive: -0.082 and inactive: 0.179, respectively.

As for CARD11 (UniProt Q9BXL7), the results for the log2 fold change in assay [2], in assay [4] and in [7] were inactive: -0.194, inactive: -0.032 and inactive: 0.147, respectively.

Take CA1 (UniProt E5RIF9): the log2 fold change is inactive: 0.132 in assay [4], inactive: -0.037 in [6] and inactive: -0.056 in assay [7].

On to C6orf62 (UniProt Q9GZU0), for which the log2 fold change is inactive: -0.007 in [4], inactive: -0.051 in assay [9], inactive: 0.011 in assay [5] and inactive: -0.208 in assay [8].

The values above are taken from the supplement of paper PMC10849652.
